Data as given in PubChem BioAssay AID743121 (NCATS, 2013)
Aim: 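Genes whose silencing strengthens cell killing by camptothecin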 (primary screen). Cells: MDA-MB-231 cells, a human breast cancer line. Reagents: single siRNA against human genes, 20 nM siRNA (0.8 pmol per well). Timing: 120 h (drug added 48 h after transfection, read 72 h later). Treatment: camptothecin 20 nM (about EC30) for 72 h; vehicle 0.1% DMSO in parallel plates. Measurement: 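Cell viability by ATP luminescence (CellTiter-Glo) as % of non-targeting siRNA wells, and the log2 ratio of viability without drug over viability with camptothecin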. Reading the numbers: log2 vehicle/camptothecin viability: higher = stronger sensitisation to camptothecin; viability with camptothecin: higher = more viable cells. Hit rule: 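Active genes have an RSA gene-level p-value below 0.001, computed from the ratios of their separate siRNAs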.
The whole screen tested about 26,000 reagents; this is an unselected part. 167 of all reagents (0.63%) count as active. 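Calls are per gene from RSA p-values that are not deposited; an individual active-marked siRNA can sensitise only weakly.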 Entries without a mark were called inactive. Reagents against one gene are numbered here. Further read-outs or replicates are left out here.

What is on record for ZNF596 (zinc finger protein 596) #1?
log2 vehicle/camptothecin viability: -0.304; viability with camptothecin (% of control): 95.4

What is on record for ZNF596 (zinc finger protein 596) #2?
log2 vehicle/camptothecin viability: -0.226; viability with camptothecin (% of control): 20.3

With ZNF596 (zinc finger protein 596) #3, how do the results read?
log2 vehicle/camptothecin viability: -0.161; viability with camptothecin (% of control): 109

How did the screen score ZNF596 (zinc finger protein 596) #4?
log2 vehicle/camptothecin viability: 0.266; viability with camptothecin (% of control): 72.6

How did the screen score CDK12 (cyclin dependent kinase 12) #1?
log2 vehicle/camptothecin viability: 0.122; viability with camptothecin (% of control): 46.8

Which result is listed for CDK12 (cyclin dependent kinase 12) #2?
log2 vehicle/camptothecin viability: 0.54; viability with camptothecin (% of control): 60.6

For CDK12 (cyclin dependent kinase 12) #3, how do the results read?
log2 vehicle/camptothecin viability: -0.22; viability with camptothecin (% of control): 73

What is on record for CDK12 (cyclin dependent kinase 12) #4?
log2 vehicle/camptothecin viability: -0.0112; viability with camptothecin (% of control): 97.1

Entries above whose gene name starts with Z or z (4):
ZNF596 (zinc finger protein 596) #1 | log2 vehicle/camptothecin viability = -0.304; viability with camptothecin (% of control) = 95.4
ZNF596 (zinc finger protein 596) #2 | log2 vehicle/camptothecin viability = -0.226; viability with camptothecin (% of control) = 20.3
ZNF596 (zinc finger protein 596) #3 | log2 vehicle/camptothecin viability = -0.161; viability with camptothecin (% of control) = 109
ZNF596 (zinc finger protein 596) #4 | log2 vehicle/camptothecin viability = 0.266; viability with camptothecin (% of control) = 72.6

More entries follow.
Which result is listed for BACE2 (beta-secretase 2) #1?
log2 vehicle/camptothecin viability: -0.219; viability with camptothecin (% of control): 71.7

For BACE2 (beta-secretase 2) #2, what does the deposit list?
log2 vehicle/camptothecin viability: 0.572; viability with camptothecin (% of control): 76

For BACE2 (beta-secretase 2) #3, what does the deposit list?
log2 vehicle/camptothecin viability: -0.393; viability with camptothecin (% of control): 98.6

What is on record for BACE2 (beta-secretase 2) #4?
log2 vehicle/camptothecin viability: -0.217; viability with camptothecin (% of control): 84.4

For ADCY9 (adenylate cyclase 9) #1, what was measured?
log2 vehicle/camptothecin viability: -0.262; viability with camptothecin (% of control): 102

What did the screen give for ADCY9 (adenylate cyclase 9) #2?
log2 vehicle/camptothecin viability: -0.00221; viability with camptothecin (% of control): 54.8

What is on record for ADCY9 (adenylate cyclase 9) #3?
log2 vehicle/camptothecin viability: -0.177; viability with camptothecin (% of control): 105

With ADCY9 (adenylate cyclase 9) #4, what was measured?
log2 vehicle/camptothecin viability: -0.266; viability with camptothecin (% of control): 97.4
